Drawing on article doi:10.1101/2021.05.20.444955, this text covers binding for four molecules.

Residue numbers refer to the chain shown, from its start. Results are given in words; binding and its absence hold for the method and conditions named. For some of these results: Binding seen in cells or lysates may run through a third protein. Some binding calls cover weakened binding; strength is not graded here. Tags and fused reporters may be left off the sequences shown.

The target in assay [1] is T1, SPD-5(272–732), yeast two-hybrid fusion (C. elegans) (UniProt P91349).
T1 sequence: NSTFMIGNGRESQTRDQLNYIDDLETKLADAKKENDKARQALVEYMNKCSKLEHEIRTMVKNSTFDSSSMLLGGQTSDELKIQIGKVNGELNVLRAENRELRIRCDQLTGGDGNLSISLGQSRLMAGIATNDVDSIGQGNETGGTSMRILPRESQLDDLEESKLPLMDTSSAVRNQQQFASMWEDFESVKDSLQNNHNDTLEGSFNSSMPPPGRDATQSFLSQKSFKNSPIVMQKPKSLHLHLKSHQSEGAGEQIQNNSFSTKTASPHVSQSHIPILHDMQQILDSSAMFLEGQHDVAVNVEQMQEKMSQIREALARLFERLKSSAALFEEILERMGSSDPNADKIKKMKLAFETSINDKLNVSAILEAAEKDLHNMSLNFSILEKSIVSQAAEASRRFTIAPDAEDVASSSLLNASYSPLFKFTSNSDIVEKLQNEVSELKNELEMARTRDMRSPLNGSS
Kind of assay: two-hybrid.

Assay [2] deals with T2, GST-tagged SPD-5(272–732_4A), without PLK-1 pretreatment (C. elegans) (UniProt P91349).
T2 sequence: T1 sequence with S259A, S356A, S382A, S387A
As to the kind of experiment: pull-down.

Assay [3] concerns the target T3, SPD-5(272–680), yeast two-hybrid fusion (C. elegans) (UniProt P91349).
T3 sequence: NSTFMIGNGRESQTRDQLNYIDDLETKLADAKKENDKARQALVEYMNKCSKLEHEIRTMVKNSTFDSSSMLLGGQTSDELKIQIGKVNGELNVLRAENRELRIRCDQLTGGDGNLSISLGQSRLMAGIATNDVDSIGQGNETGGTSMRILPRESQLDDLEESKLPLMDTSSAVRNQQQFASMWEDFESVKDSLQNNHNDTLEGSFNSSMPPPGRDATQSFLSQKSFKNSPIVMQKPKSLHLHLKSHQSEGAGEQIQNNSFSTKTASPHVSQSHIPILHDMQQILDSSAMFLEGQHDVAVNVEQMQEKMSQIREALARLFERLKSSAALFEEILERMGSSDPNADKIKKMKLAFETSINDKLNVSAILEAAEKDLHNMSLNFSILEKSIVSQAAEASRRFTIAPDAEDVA
As to the kind of experiment: two-hybrid.

The target in assay [4] is T4, SPD-5(523–732), yeast two-hybrid fusion (C. elegans) (UniProt P91349).
T4 sequence: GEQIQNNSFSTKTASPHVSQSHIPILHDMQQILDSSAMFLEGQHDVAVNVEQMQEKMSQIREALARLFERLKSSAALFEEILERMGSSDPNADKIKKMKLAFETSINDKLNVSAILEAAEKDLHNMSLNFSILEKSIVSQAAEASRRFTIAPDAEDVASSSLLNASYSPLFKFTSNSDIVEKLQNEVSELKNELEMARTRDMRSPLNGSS
Kind of assay: two-hybrid.

In assay [5] the target is T5, SPD-5(400–680), yeast two-hybrid fusion (C. elegans) (UniProt P91349).
T5 sequence: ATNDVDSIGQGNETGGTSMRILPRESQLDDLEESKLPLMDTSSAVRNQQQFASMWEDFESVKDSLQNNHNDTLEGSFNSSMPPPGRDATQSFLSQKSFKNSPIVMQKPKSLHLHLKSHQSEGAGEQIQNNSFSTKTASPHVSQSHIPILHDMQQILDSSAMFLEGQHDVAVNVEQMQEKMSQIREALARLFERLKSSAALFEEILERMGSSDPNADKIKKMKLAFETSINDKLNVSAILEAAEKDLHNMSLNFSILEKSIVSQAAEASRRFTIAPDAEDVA
Kind of assay: two-hybrid.

B1: SPD-5(C1), aa 927–1198, yeast two-hybrid fusion (domain or fragment, UniProt P91349 927-1198)
chain: MTERKKEIELAKYREDFENAAIVGLERISKEISELTKKTLKAKIIPSNISSIQLVCDELCRRLSREREQQHEYAKVMRDVNEKIEKLQLEKDALEHELKMMSSNNENVPPVGTSVSGMPTKTSNQKCAQPHYTSPTRQLLHESTMAVDAIVQKLKKTHNMSGMGPELKETIGNVINESRVLRDFLHQKLILFKGIDMSNWKNETVDQLITDLGQLHQDNLMLEEQIKKYKKELKLTKSAIPTLGVEFQDRIKTEIGKIATDMGGAVKEIRKK
Turning to B1, the binding result in assay [1] is “binds”.

B2: endogenous SPD-5 (protein, UniProt P91349 1-1198)
chain: MEDNSVLNEDSNLEHVEGQPRRSMSQPVLNVEGDKRTSSTSATQQQVLSGAFSSADVRSIPIIQTWEENKALKTKITILRGELQMYQRRYSEAKEASQKRVKEVMDDYVDLKLGQENVQEKMEQYKLMEEDLLAMQSRIETSEDNFARQMKEFEAQKHAMEERIKELELSATDANNTTVGSFRGTLDDILKKNDPDFTLTSGYEERKINDLEAKLLSEIDKVAELEDHIQQLRQELDDQSARLADSENVRAQLEAATGQGILGAAGNAMVPNSTFMIGNGRESQTRDQLNYIDDLETKLADAKKENDKARQALVEYMNKCSKLEHEIRTMVKNSTFDSSSMLLGGQTSDELKIQIGKVNGELNVLRAENRELRIRCDQLTGGDGNLSISLGQSRLMAGIATNDVDSIGQGNETGGTSMRILPRESQLDDLEESKLPLMDTSSAVRNQQQFASMWEDFESVKDSLQNNHNDTLEGSFNSSMPPPGRDATQSFLSQKSFKNSPIVMQKPKSLHLHLKSHQSEGAGEQIQNNSFSTKTASPHVSQSHIPILHDMQQILDSSAMFLEGQHDVAVNVEQMQEKMSQIREALARLFERLKSSAALFEEILERMGSSDPNADKIKKMKLAFETSINDKLNVSAILEAAEKDLHNMSLNFSILEKSIVSQAAEASRRFTIAPDAEDVASSSLLNASYSPLFKFTSNSDIVEKLQNEVSELKNELEMARTRDMRSPLNGSSGRLSDVQINTNRMFEDLEVSEATLQKAKEENSTLKSQFAELEANLHQVNSKLGEVRCELNEALARVDGEQETRVKAENALEEARQLISSLKHEENELKKTITDMGMRLNEAKKSDEFLKSELSTALEEEKKSQNLADELSEELNGWRMRTKEAENKVEHASSEKSEMLERIVHLETEMEKLSTSEIAADYCSTKMTERKKEIELAKYREDFENAAIVGLERISKEISELTKKTLKAKIIPSNISSIQLVCDELCRRLSREREQQHEYAKVMRDVNEKIEKLQLEKDALEHELKMMSSNNENVPPVGTSVSGMPTKTSNQKCAQPHYTSPTRQLLHESTMAVDAIVQKLKKTHNMSGMGPELKETIGNVINESRVLRDFLHQKLILFKGIDMSNWKNETVDQLITDLGQLHQDNLMLEEQIKKYKKELKLTKSAIPTLGVEFQDRIKTEIGKIATDMGGAVKEIRKK
As for B2, the binding result in assay [2] is recorded as “binds weakly”.

B3: SPD-5(C2), aa 1061–1198, yeast two-hybrid fusion (domain or fragment, UniProt P91349 1061-1198)
chain: PTRQLLHESTMAVDAIVQKLKKTHNMSGMGPELKETIGNVINESRVLRDFLHQKLILFKGIDMSNWKNETVDQLITDLGQLHQDNLMLEEQIKKYKKELKLTKSAIPTLGVEFQDRIKTEIGKIATDMGGAVKEIRKK
In the case of B3, the binding entry is “no binding” in assay [3], “no binding” in assay [4], “binds” in assay [1] and “no binding” in assay [5].

B4: GFP::SPD-5(C2), from C. elegans egg lysate (domain or fragment, UniProt P91349 1061-1198)
chain: B3 chain
As for B4, the binding result in assay [2] was “binds weakly”.
